Source: patent US20100021940A1, “Method for Determining the Activity of a Protease in a Sample” (ASTRAZENECA AB, priority 2006, published 2010)
Several values for one entry are separate records, joined by “and”; a condition that tells them apart may be missing. Equal entries are not always repeated. This continues a long series; more values of the same kind are listed elsewhere.

Test system: MMP9
Test: MMP9 activity in whole blood via 4-nitroaniline in plasma after zymosan stimulation (LC-MS)
Format: biochemical, human
Conditions: individual subjects, substrate 10 μM in plasma, 37° C., 60 min
Protocol: Samples of heparinised whole blood (1 mL) were stimulated with Zymosan (0, 50, 300, 600, 900 and 1200 μg/mL), vortexed or and incubated at 37° C. for 15 minutes. Plasma was collected after centrifugation, mixed with the substrate (10 μM) and incubated at 37° C. for 60 minutes. Methanol (300 μL), with (^13C)6-4-nitroaniline (1 μM) as internal standard, was added to a 100 μL aliquot of the above mixture and centrifuged to remove precipitated proteins. The supernatant (100 μL) was diluted with water (100 μL) and the extracts was injected directly onto a HPLC column.
Thaw, as required, pooled control human plasma, quality control and test samples. Add methyl 1-acetyl-L-prolyl-L-leucylglycyl-α-R-(4-nitrophenylamino)-glycyl-L-leucyl-β-alaninate (2 μL, solution D) to test plasma sample (200 μL) in 2 mL screw cap microtubes and mix on a vortex mixer.
Incubate tubes for 60 minutes at 37° C. in a shaking water bath. Prepare the calibration samples in plasma as detailed in Table 1 during the 60 minute incubation of test samples in step 3. Mix the samples on a vortex mixer.
Manually dispense aliquots (100 μL) of each plasma sample into separate wells of a 96 deep-well 2 mL plate using an appropriate pipette. (Note: start pipetting calibration, quality control and blank samples approximately 10 minutes before the test samples have finished their incubation in step 3). Dispense internal standard in methanol (300 μL) into each well using the Tecan. Cover the plate with polystyrene cover. Centrifuge at 3000 rpm for 5 minutes at room temperature.
Transfer an aliquot (100 μL) of the sample supernatant into separate wells of a 96 deep-well 2 mL plate using the Tecan. Mix water (100 μL) with each sample in the wells of a 96 deep-well polypropylene plate using the Tecan. Cover plate with pre-spilt 96 well seal.
Analyse 10 μL aliquots by LC/MS.
Whole blood samples were stimulated with varying concentrations of zymosan (0, 50, 300, 600, 900 and 1200 μg/mL). Plasma sample obtained from the stimulated whole blood samples were mixed with the substrate methyl 1-acetyl-L-prolyl-L-leucylglycyl-α-R-(4-nitrophenylamino)-glycyl-L-leucyl-β-alaninate at a plasma concentration of 10 μM and the samples were then incubated at 37° C. for 60 minutes. Aliquots (100 μL) of the human plasma were mixed with methanol (300 μL) containing [^13C]6-4-nitroaniline as an internal standard to precipitate the proteins and the sample was centrifuged and supernatants (100 μL) were mixed with water (100 μL). The extracts 10 μL were injected directly onto a Phenomenex Luna phenyl-hexyl column (50×2.0 mm, 5 μm) and the compounds eluted with a gradient mobile phase consisting of 0.01% ammonia/methanol. 4-nitroaniline was resolved from endogenous plasma constituents and the HPLC effluent was directed into the mass spectrometer via a heated nebuliser interface in negative mode. 4-nitroaniline and [^13C]6-4-nitroaniline were detected using single ion monitoring of the [M-H]^− ions at the mass to charge ratio of m/z 137 and 143 respectively. The method is described above.
The method is validated over the range 0.0500 to 10.0 μM for 4-nitroaniline based on the analysis of a 100 μL plasma sample. Quality control samples at concentrations of 0.100, 2.00 and 8.00 μM 4-nitroaniline were included to determine the acceptability of each analysis batch. The limit of quantification (LOQ) of the method is 0.0500 μM 4-nitroaniline for a 100 μL aliquot of plasma.

COC(=O)CCNC(=O)[C@H](CC(C)C)NC(=O)[C@@H](NC(=O)CNC(=O)[C@H](CC(C)C)NC(=O)[C@@H]1CCCN1C(C)=O)Nc1ccc([N+](=O)[O-])cc1 [Example 1.1, Methyl 1-acetyl-L-prolyl-L-leucylglycyl-α-R-(4-nitrophenylamino)-glycyl-L-leucyl-β-alaninate]
4-nitroaniline concentration (COPD patients, visit 3, zymosan 0 μg): 0.128 μM and 0.111 μM and 0.124 μM and 0.212 μM and 0.0914 μM and 0.162 μM and 0.139 μM and 0.138 μM and 0.114 μM and 0.137 μM (2×) and 0.115 μM and 0.0647 μM and 0.243 μM and 0.0851 μM and 0.0527 μM and 0.118 μM and 0.165 μM and 0.140 μM and 0.0827 μM
4-nitroaniline concentration (COPD patients, visit 3, zymosan 50 μg): 1.05 μM (2×) and 2.06 μM and 2.19 μM and 1.59 μM and 1.37 μM and 1.20 μM and 1.89 μM and 2.48 μM and 2.00 μM and 2.89 μM and 1.55 μM and 2.01 μM and 2.71 μM and 0.927 μM and 0.281 μM and 0.969 μM and 1.00 μM and 1.30 μM and 1.01 μM
4-nitroaniline concentration (COPD patients, visit 3, zymosan 300 μg): 2.59 µM and 4.99 µM and 4.83 µM and 3.53 µM and 4.29 µM and 2.10 µM and 3.29 µM and 5.21 µM and 2.27 µM and 3.73 µM and 5.39 µM and 4.39 µM and 3.91 µM and 6.38 µM and 2.01 µM and 1.17 µM and 2.52 µM and 2.41 µM and 2.95 µM and 3.26 µM
4-nitroaniline concentration (COPD patients, visit 3, zymosan 600 μg): 2.82 μM and 5.53 μM (2×) and 5.39 μM and 4.37 μM and 5.06 μM and 2.57 μM and 4.58 μM and 5.75 μM and 2.92 μM (2×) and 4.74 μM and 5.89 μM and 4.14 μM and 7.73 μM and 1.82 μM and 3.46 μM and 3.45 μM and 3.90 μM and 4.10 μM
4-nitroaniline concentration (COPD patients, visit 3, zymosan 900 μg): 3.11 µM and 6.55 µM and 5.89 µM and 4.66 µM and 5.97 µM and 2.88 µM and 4.97 µM and 6.29 µM and 3.33 µM and 5.36 µM and 6.13 µM and 6.16 µM and 4.50 µM and 8.39 µM and 3.07 µM and 1.82 µM and 3.95 µM and 3.83 µM and 3.96 µM and 4.64 µM
4-nitroaniline concentration (COPD patients, visit 3, zymosan 1200 μg): 3.21 µM and 6.14 µM and 5.62 µM and 4.58 µM and 5.89 µM and 2.58 µM and 5.06 µM and 6.10 µM and 2.67 µM and 4.38 µM and 6.04 µM and 5.92 µM and 4.15 µM and 8.93 µM and 3.02 µM and 1.95 µM and 3.88 µM and 4.14 µM and 4.66 µM and 4.63 µM
4-nitroaniline concentration (COPD patients, visit 4, zymosan 0 μg): 0.179 μM and 0.0951 μM and 0.138 μM and 0.243 μM and 0.110 μM (2×) and 0.217 μM and 0.125 μM (2×) and 0.115 μM and 0.143 μM and 0.134 μM and 0.185 μM and 0.0984 μM and 0.219 μM and 0.0972 μM and 0.109 μM and 0.157 μM and 0.139 μM and 0.0844 μM
4-nitroaniline concentration (COPD patients, visit 4, zymosan 50 μg): 1.48 μM (2×) and 1.25 μM and 1.88 μM and 1.84 μM and 2.11 μM and 1.34 μM and 2.16 μM and 1.58 μM and 1.20 μM and 1.67 μM and 1.18 μM (2×) and 1.44 μM and 1.87 μM and 2.33 μM and 2.15 μM and 0.675 μM and 0.589 μM and 0.891 μM
4-nitroaniline concentration (COPD patients, visit 4, zymosan 300 μg): 3.18 µM and 2.95 µM and 3.95 µM and 3.77 µM and 3.61 µM and 2.63 µM and 3.71 µM and 3.74 µM and 3.01 µM and 4.12 µM and 4.14 µM and 4.77 µM and 4.03 µM and 5.86 µM and 0.789 µM and 1.95 µM and 1.56 µM and 2.27 µM and 2.79 µM and 3.35 µM
4-nitroaniline concentration (COPD patients, visit 4, zymosan 600 μg): 3.67 µM and 3.49 µM and 4.75 µM and 4.63 µM and 4.45 µM and 2.99 µM and 4.23 µM and 4.58 µM and 3.55 µM and 4.62 µM and 5.28 µM and 5.90 µM and 4.83 µM and 6.52 µM and 2.76 µM and 2.62 µM and 2.18 µM and 2.82 µM and 3.01 µM and 3.79 µM
4-nitroaniline concentration (COPD patients, visit 4, zymosan 900 μg): 4.18 μM (2×) and 3.70 μM and 5.05 μM and 5.26 μM and 4.58 μM and 3.30 μM and 4.42 μM and 4.90 μM and 4.06 μM and 4.94 μM and 5.13 μM and 6.15 μM and 5.14 μM and 7.33 μM and 3.18 μM and 2.91 μM and 2.99 μM and 3.14 μM and 3.59 μM
4-nitroaniline concentration (COPD patients, visit 4, zymosan 1200 μg): 3.79 µM and 3.85 µM and 4.85 µM and 4.91 µM and 4.43 µM and 3.47 µM and 4.87 µM and 5.22 µM and 4.06 µM and 5.42 µM and 5.50 µM and 6.49 µM and 5.33 µM and 7.40 µM and 3.39 µM and 3.49 µM and 3.16 µM and 3.42 µM and 3.62 µM and 4.22 µM
4-nitroaniline concentration (healthy volunteers, visit 4, zymosan 0 μg): 0.111 µM and 0.0866 µM and 0.152 µM
4-nitroaniline concentration (healthy volunteers, visit 4, zymosan 50 μg): 0.796 µM and 0.751 µM and 1.00 µM
4-nitroaniline concentration (healthy volunteers, visit 4, zymosan 300 μg): 2.28 µM and 1.65 µM and 2.77 µM
4-nitroaniline concentration (healthy volunteers, visit 4, zymosan 600 μg): 2.91 µM and 1.92 µM and 2.96 µM
4-nitroaniline concentration (healthy volunteers, visit 4, zymosan 900 μg): 3.43 µM and 2.09 µM and 3.17 µM
4-nitroaniline concentration (healthy volunteers, visit 4, zymosan 1200 μg): 3.60 µM and 3.38 µM and 2.26 µM and 3.20 µM
4-nitroaniline concentration (smokers, visit 3, zymosan 0 μg): 0.113 µM and 0.107 µM and 0.109 µM and 0.0861 µM and 0.176 µM and 0.239 µM and 0.0779 µM and 0.339 µM and 0.116 µM and 0.131 µM
4-nitroaniline concentration (smokers, visit 3, zymosan 50 μg): 0.769 µM and 1.11 µM and 1.12 µM and 0.862 µM and 3.00 µM and 1.02 µM and 0.406 µM and 3.01 µM and 2.15 µM and 1.10 µM
4-nitroaniline concentration (smokers, visit 3, zymosan 300 μg): 2.05 μM and 2.56 μM and 3.14 μM and 2.21 μM and 6.36 μM and 2.68 μM (2×) and 1.18 μM and 6.45 μM and 4.19 μM
4-nitroaniline concentration (smokers, visit 3, zymosan 600 μg): 2.31 µM and 3.48 µM and 3.72 µM and 2.75 µM and 7.70 µM and 3.39 µM and 1.70 µM and 7.79 µM and 4.93 µM and 3.27 µM
4-nitroaniline concentration (smokers, visit 3, zymosan 900 μg): 2.68 µM and 3.61 µM and 3.91 µM and 3.16 µM and 8.43 µM and 3.82 µM and 1.82 µM and 8.61 µM and 5.09 µM and 3.36 µM
4-nitroaniline concentration (smokers, visit 3, zymosan 1200 μg): 2.43 µM and 3.68 µM and 4.25 µM and 3.23 µM and 8.30 µM and 4.01 µM and 1.64 µM and 8.66 µM and 5.13 µM and 3.37 µM
4-nitroaniline concentration (smokers, visit 4, zymosan 0 μg): 0.0729 µM and 0.0973 µM and 0.182 µM and 0.108 µM and 0.128 µM and 0.195 µM and 0.0588 µM and 0.279 µM and 0.131 µM and 0.165 µM
4-nitroaniline concentration (smokers, visit 4, zymosan 50 μg): 1.17 µM and 1.92 µM and 1.54 µM and 0.742 µM and 1.52 µM and 1.21 µM and 0.341 µM and 4.57 µM and 2.16 µM and 1.45 µM
4-nitroaniline concentration (smokers, visit 4, zymosan 300 μg): 2.29 µM and 3.43 µM and 2.99 µM and 2.30 µM and 4.52 µM and 2.59 µM and 0.91 µM and 7.93 µM and 3.57 µM and 2.65 µM
4-nitroaniline concentration (smokers, visit 4, zymosan 600 μg): 2.48 µM and 3.64 µM and 3.41 µM and 2.54 µM and 5.50 µM and 3.43 µM and 1.1 µM and 8.74 µM and 3.92 µM and 2.87 µM
4-nitroaniline concentration (smokers, visit 4, zymosan 900 μg): 2.86 µM and 4.06 µM and 3.56 µM and 3.18 µM and 6.30 µM and 3.86 µM and 1.38 µM and 9.12 µM and 4.48 µM and 3.10 µM
4-nitroaniline concentration (smokers, visit 4, zymosan 1200 μg): 2.82 µM and 4.22 µM and 3.53 µM and 3.71 µM and 6.49 µM and 4.23 µM and 1.42 µM and 9.95 µM and 4.81 µM and 2.95 µM
